Data reported in PubChem BioAssay AID2685 (National Center for Advancing Translational Sciences (NCATS), 2010).
Some of the results follow. The main result of the screen is listed elsewhere. These columns were measured beside it and carry no call. Most of these compounds were active or inconclusive in the main read-out, so they are no random draw. The note in brackets gives the kind of curve behind each potency; many fits are weak.

Test: qHTS Assay for Lipid Storage Modulators in Drosophila S3 Cells;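 on cell number change: cells counted by Cell Tracker Red CMTPX staining in the red channel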
Conditions: BODIPY lipid droplet fluorescence, 18-24 h; for cell number change: measured here: cell count max response, cells fed with added oleic acid
Method in brief: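 Laser-scanning cytometry quantifies lipid droplet accumulation (500–530 nm total intensity; droplet/cell object ratio) in oleic acid-fed (400 uM added) Drosophila S3 cells treated with a concentration series. 20 uM Triacsin C defined 100% inhibition.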

[1] = measured here: lipid fluorescence (Fed channel) AC50, cells fed with added oleic acid
[2] = measured here: cell number channel AC50, cells fed with added oleic acid

SMILES | cell number change [%] | AC50 [1] | AC50 [2]
O=C(Nc1ccc2snnc2c1)N1CCN(c2ccccc2)CC1 | -27.3 | 29.1 µM [falling, single point] | –
CC(CC(=O)N1CCN(C(=O)c2ccccc2)CC1)c1ccccc1 (stereo not given) | 3.55 | 6.51 µM [rising, partial curve, poor fit] | –
O=C(CCc1nnc(Cc2ccc3c(c2)OCO3)o1)NCCc1ccccc1Cl | – | – | 6.51 µM [rising, single point]
CC1(C)C[C@H]2C3=CCC4[C@@]5(C)CC[C@H](O)[C@](C)(CO)C5CC[C@@]4(C)[C@]3(C)C[C@H]3O[C@@H]1[C@H](O)[C@]32CO (stereo not given in full) | -43.8 | 6.51 µM [falling, full curve, poor fit] | 2.06 µM [falling, full curve]
O=C(COc1ccc(S(=O)(=O)N2CCOCC2)cc1Cl)NCCCn1ccnc1 | -6.58 | – | –
CC(=O)NC(Cc1ccc(F)cc1)C(=O)NC1CCN(C(=O)Nc2ccccc2C)CC1 (stereo not given) | 1.25 | 16.4 µM [rising, single point] | –
Cc1cccc(OCc2nnc(SCC(=O)NC3CCCC3)n2C)c1 | 1.9 | – | –
CCn1cc(C(=O)N[C@@H](CCSC)C(=O)NC(C)(C)CO)c(=O)c2cc3c(cc21)OCO3 | 27 | 8.2 µM [rising, partial curve, poor fit] | –
COCC(=O)N1CCC(n2nnc3cc(C(F)(F)F)ccc32)CC1 | -1.19 | – | –
COc1cc(C=Nc2c(C)cc(C)cc2C)ccc1OC(C)=O | -47.1 | – | 29.1 µM [falling, single point]
O=C(N/N=C\c1cccs1)c1ccccc1-n1cccc1 | 1.03 | 0.651 µM [rising, partial curve, poor fit] | 1.03 µM [rising, full curve]
CCc1ccc(N(CC)c2ncnc3nc[nH]c23)cc1 | -20 | 18.4 µM [falling, single point] | –
Cc1cc(C)n(CC(=O)n2nc(C)cc2C)n1 | -72.8 | 6.51 µM [falling, single point] | 14.6 µM [falling, partial curve]
Cc1ccc(C)n1CCN1CCN(CC(=O)Nc2cc(C(F)(F)F)ccc2Cl)CC1 | -2.37 | – | 0.291 µM [falling, single point]
CCOc1ccc(CCNC(=O)C(CCC(N)=O)NC(=O)OCc2ccccc2)cc1OCC (stereo not given) | -8.08 | 6.31 µM [falling, single point] | –
CC(=O)C1=C(O)C(=O)N(c2ccc(Br)cc2)C1c1ccc(Br)cc1 (stereo not given) | – | – | 0.0291 µM [falling, full curve, poor fit]
CCC(=O)Nc1ccccc1C(=O)N1CCN(Cc2ccccc2)CC1 | 1.63 | 0.461 µM [falling, partial curve, poor fit] | –
CN(CC(=O)Nc1cccc(S(=O)(=O)N(C)C)c1)Cc1ccccc1 | -0.952 | – | –

SMILES | cell number change [%] | AC50 [1] | AC50 [2]
Cc1cccc(N2CCN(C(=O)c3ccccc3NC(=O)C3CCCCC3C(=O)O)CC2)c1 (stereo not given) | 4.49 | – | –
CCCCN=C1C([N+](=O)[O-])=CC=C2C1=NC1(CCCCC1)N2O | -26.5 | 4.61 µM [falling, partial curve] | 0.326 µM [falling, full curve, poor fit]
Cc1ccc(NC(=O)C(C)Sc2nnc(-c3cccnc3)n2-c2ccccc2)cc1 (stereo not given) | 45.2 | 4.11 µM [rising, partial curve, poor fit] | 0.0411 µM [rising, full curve]
CC(=O)c1ccc(-n2c(-c3cc(-c4ccco4)[nH]n3)n[nH]c2=S)cc1 | -7.05 | 0.291 µM [rising, full curve, poor fit] | –
CC(=O)c1ccc(NC(=O)c2ccc3c(Cl)c4c(nc3c2)CCCC4)cc1 | 168 | 23.1 µM [rising, partial curve] | 14.6 µM [rising, partial curve]
COC(=O)c1sc2nc(SCc3cccc(Cl)c3)n(N)c(=O)c2c1C | 32.3 | 25.9 µM [rising, partial curve, poor fit] | 0.184 µM [rising, partial curve, poor fit]
CCn1cc(C(=O)NCCCN2CC(C)CC(C)C2)c(=O)c2cc(S(=O)(=O)N(C)C)ccc21 (stereo not given) | 9.05 | – | –
O=C1CC2c3ccccc3C1C1C(=O)N(Cc3ccccc3)C(=O)C21 (stereo not given) | -3.3 | 0.00517 µM [falling, full curve, poor fit] | 0.146 µM [falling, full curve, poor fit]
O=C(NC1CCN(C(=O)NC2CCCCC2)CC1)c1cccc(F)c1 | -16.2 | 6.51 µM [falling, single point] | –
NC(=O)c1c(NC(=O)Cn2nc(C(=O)O)c3ccccc3c2=O)sc2c1CCCC2 | -29.4 | 29.1 µM [falling, single point] | –
COc1cccc(Oc2cc(NN3CCCCC3)c([N+](=O)[O-])cc2[N+](=O)[O-])c1OC | 5.83 | 0.731 µM [rising, full curve] | –
CCN(CC)C(=O)CSc1nnc(-c2ccc(S(=O)(=O)N3CCCC3)cc2)o1 | -64.3 | 25.9 µM [falling, partial curve] | 25.9 µM [falling, partial curve]
CC(=O)c1ccc(Nc2c3c(nc4ccccc24)CCCC3)cc1 | 7.49 | 4.11 µM [rising, full curve] | –
COc1ccc(C(=O)COC(=O)CNC(=O)C2CCCCC2)c(OC)c1 | – | – | 0.58 µM [falling, single point]
NC(=O)c1cc([N+](=O)[O-])ccc1NCCc1ccccc1 | -2.02 | 4.11 µM [rising, single point] | –
COc1ccc(CC(=O)N(Cc2cc3cc(OC)ccc3[nH]c2=O)C(C)C)cc1 | 4.57 | – | –
COc1ccc(/C=N/N(Cc2ccccc2)c2ccccc2)cc1O | -20.3 | – | –
Cc1nn(-c2cccc(C(F)(F)F)c2)c(Cl)c1/C=N/Nc1cccc(C(=O)O)c1 | 23.2 | 2.59 µM [rising, full curve, poor fit] | –

Fetched by structure from the entries so far, three records:
SMILES | cell number change [%] | AC50 [1] | AC50 [2]
COc1cc(C=Nc2c(C)cc(C)cc2C)ccc1OC(C)=O | -47.1 | – | 29.1 µM [falling, single point]
O=C(N/N=C\c1cccs1)c1ccccc1-n1cccc1 | 1.03 | 0.651 µM [rising, partial curve, poor fit] | 1.03 µM [rising, full curve]
O=C(COc1ccc(S(=O)(=O)N2CCOCC2)cc1Cl)NCCCn1ccnc1 | -6.58 | – | –
